Measured values taken from paper PMC8501799, “Constitutive signal bias mediated by the human GHRHR splice variant 1” (Proceedings of the National Academy of Sciences of the …, 2021).
Residue numbers refer to the chain shown, from its start. Results are given in words; binding and its absence hold for the method and conditions named. Binding seen in cells or lysates may run through a third protein. Some entries that bind do so weakly or less than the wild type.

Sequences of proteins named here, by UniProt entry; tags and fusion partners are left off.
UniProt P49407: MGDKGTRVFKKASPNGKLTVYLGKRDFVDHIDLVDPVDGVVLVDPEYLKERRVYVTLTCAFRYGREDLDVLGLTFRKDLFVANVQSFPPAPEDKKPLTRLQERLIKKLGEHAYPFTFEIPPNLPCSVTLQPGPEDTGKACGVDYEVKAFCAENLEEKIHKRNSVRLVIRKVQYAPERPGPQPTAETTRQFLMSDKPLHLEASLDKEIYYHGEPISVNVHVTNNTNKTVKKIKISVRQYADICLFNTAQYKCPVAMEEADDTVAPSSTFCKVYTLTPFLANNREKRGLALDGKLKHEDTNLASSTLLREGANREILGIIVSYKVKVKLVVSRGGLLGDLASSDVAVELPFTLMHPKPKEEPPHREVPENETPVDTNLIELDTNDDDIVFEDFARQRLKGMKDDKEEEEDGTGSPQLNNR

What was measured:
Assay in all cases: FRET or BRET; β-arrestin 1/2 recruitment assay in live HEK293T cells co-transfected with receptor-Rluc8 and β-arrestin 1/2-Venus (1:9 mass ratio); coelenterazine h; started with 250 μM GHRH; AUC of the BRET time course (535 nm/470 nm) normalised to WT GHRHR = 100%
[1] = molecular target: T1, truncated GHRHR that lacks the first 89 residues (human) (UniProt Q02643)
T1 sequence: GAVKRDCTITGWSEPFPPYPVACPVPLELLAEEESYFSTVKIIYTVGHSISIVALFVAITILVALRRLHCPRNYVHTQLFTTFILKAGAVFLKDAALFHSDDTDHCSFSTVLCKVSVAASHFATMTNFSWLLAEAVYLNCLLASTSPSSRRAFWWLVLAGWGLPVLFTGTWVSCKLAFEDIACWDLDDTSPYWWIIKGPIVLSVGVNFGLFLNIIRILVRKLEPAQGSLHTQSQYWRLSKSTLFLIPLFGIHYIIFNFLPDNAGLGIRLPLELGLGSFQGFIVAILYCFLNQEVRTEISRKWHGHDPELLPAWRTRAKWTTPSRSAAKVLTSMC

GHRHR F82A (human) = molecular target: T2, GHRHR F82A (human) (UniProt Q02643)
T2 sequence: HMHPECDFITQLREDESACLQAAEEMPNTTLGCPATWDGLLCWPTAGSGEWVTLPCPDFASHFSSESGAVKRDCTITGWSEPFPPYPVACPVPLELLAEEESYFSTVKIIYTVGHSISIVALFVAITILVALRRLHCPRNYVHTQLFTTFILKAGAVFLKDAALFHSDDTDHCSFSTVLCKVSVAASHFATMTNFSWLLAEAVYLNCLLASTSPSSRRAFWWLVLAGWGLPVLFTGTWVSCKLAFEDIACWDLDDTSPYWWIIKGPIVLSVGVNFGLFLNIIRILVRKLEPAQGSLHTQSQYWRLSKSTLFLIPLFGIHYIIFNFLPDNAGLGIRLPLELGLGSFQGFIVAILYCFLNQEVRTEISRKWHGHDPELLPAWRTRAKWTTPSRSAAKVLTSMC

GHRHR D274A (human) = molecular target: T3, GHRHR D274A (human) (UniProt Q02643)
T3 sequence: T2 sequence with A60F, D252A

GHRHR L34A (human) = molecular target: T4, GHRHR L34A (human) (UniProt Q02643)
T4 sequence: T2 sequence with L12A, A60F

GHRHR E223A (human) = molecular target: T5, GHRHR E223A (human) (UniProt Q02643)
T5 sequence: T2 sequence with A60F, E201A

Measured: binding

β-arrestin 1-Venus (from UniProt P49407 1-418)
binds: all assays above
